First the molecules themselves.
T1: CNGC2-TurboID (Arabidopsis thaliana) (UniProt O65718)
T1 sequence: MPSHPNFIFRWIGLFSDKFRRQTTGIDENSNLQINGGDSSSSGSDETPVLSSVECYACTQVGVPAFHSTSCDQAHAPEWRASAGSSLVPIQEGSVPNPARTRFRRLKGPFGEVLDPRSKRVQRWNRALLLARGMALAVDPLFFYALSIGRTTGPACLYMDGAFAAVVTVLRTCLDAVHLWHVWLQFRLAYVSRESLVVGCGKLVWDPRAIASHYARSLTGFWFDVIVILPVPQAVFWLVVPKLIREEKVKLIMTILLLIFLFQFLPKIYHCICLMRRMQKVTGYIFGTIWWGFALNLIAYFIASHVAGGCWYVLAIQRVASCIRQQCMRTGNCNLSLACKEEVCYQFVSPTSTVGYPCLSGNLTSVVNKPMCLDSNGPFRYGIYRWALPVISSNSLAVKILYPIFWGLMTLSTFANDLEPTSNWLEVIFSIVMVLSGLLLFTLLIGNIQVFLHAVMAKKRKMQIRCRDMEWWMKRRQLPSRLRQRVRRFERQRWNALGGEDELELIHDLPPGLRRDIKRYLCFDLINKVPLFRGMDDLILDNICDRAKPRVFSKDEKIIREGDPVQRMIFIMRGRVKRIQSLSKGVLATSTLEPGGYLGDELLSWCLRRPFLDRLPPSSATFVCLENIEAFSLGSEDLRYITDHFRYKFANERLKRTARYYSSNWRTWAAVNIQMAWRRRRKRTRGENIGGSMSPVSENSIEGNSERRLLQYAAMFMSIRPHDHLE

The chains behind the UniProt entries cited, without tags or fusion partners. Residues count along the entry.
UniProt O22476, residues 24-1196: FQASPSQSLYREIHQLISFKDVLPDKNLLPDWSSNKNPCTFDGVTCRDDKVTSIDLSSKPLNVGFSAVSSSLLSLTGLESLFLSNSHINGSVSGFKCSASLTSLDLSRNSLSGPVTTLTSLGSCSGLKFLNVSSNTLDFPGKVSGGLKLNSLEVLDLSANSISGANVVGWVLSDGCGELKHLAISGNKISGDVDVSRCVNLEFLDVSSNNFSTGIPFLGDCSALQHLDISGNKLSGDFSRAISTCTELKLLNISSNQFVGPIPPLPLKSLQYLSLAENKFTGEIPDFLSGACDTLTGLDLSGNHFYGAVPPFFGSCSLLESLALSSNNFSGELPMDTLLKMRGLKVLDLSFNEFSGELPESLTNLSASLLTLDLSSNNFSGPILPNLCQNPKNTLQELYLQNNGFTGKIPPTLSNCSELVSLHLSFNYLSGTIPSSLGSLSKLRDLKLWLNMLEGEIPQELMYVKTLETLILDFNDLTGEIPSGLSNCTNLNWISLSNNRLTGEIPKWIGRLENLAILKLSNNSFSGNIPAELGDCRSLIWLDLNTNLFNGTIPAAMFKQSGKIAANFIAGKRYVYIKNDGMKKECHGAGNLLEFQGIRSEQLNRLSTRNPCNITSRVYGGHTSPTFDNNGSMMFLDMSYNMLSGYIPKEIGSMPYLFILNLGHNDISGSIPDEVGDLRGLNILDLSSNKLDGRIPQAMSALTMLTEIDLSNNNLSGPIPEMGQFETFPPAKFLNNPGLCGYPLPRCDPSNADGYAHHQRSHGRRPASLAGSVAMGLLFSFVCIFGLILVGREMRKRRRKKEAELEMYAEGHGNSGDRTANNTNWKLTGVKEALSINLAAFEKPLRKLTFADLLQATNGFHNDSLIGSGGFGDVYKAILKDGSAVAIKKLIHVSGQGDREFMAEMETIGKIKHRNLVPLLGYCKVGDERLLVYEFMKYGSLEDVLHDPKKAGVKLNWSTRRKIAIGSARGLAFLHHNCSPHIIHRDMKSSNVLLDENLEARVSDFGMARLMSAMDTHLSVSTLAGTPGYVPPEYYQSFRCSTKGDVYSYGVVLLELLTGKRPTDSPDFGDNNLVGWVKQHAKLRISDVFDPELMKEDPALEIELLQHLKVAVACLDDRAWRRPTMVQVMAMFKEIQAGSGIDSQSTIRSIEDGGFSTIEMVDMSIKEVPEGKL

B1: CNGC4 (protein, UniProt Q94AS9 1-694)
chain: MATEQEFTRASRFSRDSSSVGYYSEEDNTEEEDEEEEEMEEIEEEEEEEEEEDPRIGLTCGGRRNGSSNNNKWMMLGRILDPRSKWVREWNKVFLLVCATGLFVDPLFLYTLSVSDTCMCLLVDGWLALTVTALRSMTDLLHLWNIWIQFKIARRWPYPGGDSDGDTNKGGGTRGSTRVAPPYVKKNGFFFDLFVILPLPQVVLWVVIPSLLKRGSVTLVVSVLLVTFLFQYLPKIYHSIRHLRRNATLSGYIFGTVWWGIALNMIAYFVAAHAAGACWYLLGVQRSAKCLKEQCENTIGCDLRMLSCKEPVYYGTTVMVLDRARLAWAQNHQARSVCLDINTNYTYGAYQWTIQLVSSESRLEKILFPIFWGLMTLSTFGNLESTTEWSEVVFNIIVLTSGLLLVTMLIGNIKVFLHATTSKKQAMHLKMRNIEWWMKKRHLPIGFRQRVRNYERQRWAAMRGVDECEMVQNLPEGLRRDIKYHLCLDLVRQVPLFQHMDDLVLENICDRVKSLIFTKGETIQKEGDAVQRMLFVVRGHLQSSQLLRDGVKSCCMLGPGNFSGDELLSWCLRRPFVERLPPSSSTLVTLETTEAFGLDAEDVKYVTQHFRYTFVNEKVKRSARYYSPGWRTWAAVAVQLAWRRYKHRLTLTSLSFIRPRRPLSRCASLGEDKLRLYAAILTSPKPNPDDFDDY

Our source for the binding values is article doi:10.1101/2025.01.06.631460 (bioRxiv, 2025).

No constants are given. Whether binding was seen depends on the method and setting. In cells and extracts the contact can be indirect. Here binding means that the protein was enriched with, or labelled near, the bait; the list need not be complete.

The assay deals with T1, CNGC2-TurboID (Arabidopsis thaliana). The assay can be described thus: proximity labelling.
For the molecule ARO3 (from UniProt O65640), the binding result is on record as “binds”.
The value for ARO4 was “binds”; that for “BRI1 (from UniProt O22476 24-1196) (receptor)” was “binds”.
The value for B1 was “binds”.
